Read-outs that look alike come from different tables or passages of the source. Some entries share one result that the patent states for a list of compounds. For some of these results: At least one compound was matched to its structure with a doubt left.
Experiments:
Type in all cases: in vivo
Phytophthora infestans = settings: active compound concentration 500 ppm; spray on tomato (Regina) seedlings 5 days before inoculation; evaluated 4 days after inoculation
Pyricularia oryzae [1] = settings: active compound concentration 500 ppm; foliar spray on paddy rice (Kusabue) 5 days before inoculation; evaluated 7 days after inoculation
Pyricularia oryzae [2] = settings: active compound concentration 500 ppm; rice seeds soaked 5 days at 20° C.; inoculation at 2-2.5 leaf stage; evaluated 7 days after inoculation
Pyricularia oryzae [3] = settings: active compound rate 8 kg/ha; water surface application to paddy rice 7 days before inoculation; evaluated 7 days after inoculation

| SMILES | control value (Phytophthora infestans) | control value (Pyricularia oryzae [3]) | other results |
| --- | --- | --- | --- |
| CN(C)/C=N/C(=O)c1snc(Cl)c1Cl [compound 290, N-dimethylaminomethylidene-3,4-dichloro-5-iso thiazolecarboxamide] | more than 80% | – | – |
| CCCC(NC(=O)c1snc(Cl)c1Cl)n1nnc2ccccc21 (stereo not shown) [compound 89] | more than 80% | – | control value (Pyricularia oryzae [1]): more than 80%; control value (Pyricularia oryzae [2]): more than 80% |
| O=C(Nc1ccc(C(F)(F)F)cc1)OCNC(=O)c1snc(Cl)c1Cl [compound 58, N-[N-(4-trifluoromethylphenyl)-carbamoyloxymethyl]-3,4-dichloro-5-isothiazolecarboxamide] | more than 80% | – | – |
| CCOC(NC(=O)c1snc(Cl)c1Cl)C(F)(F)F (stereo not shown) [compound 49, N-(2,2,2-trifluoro-1-ethoxyethyl)-3,4-dichloro-5-isothiazolecarboxamide] | – | more than 80% | – |
| Cn1nnnc1SCNC(=O)c1snc(Cl)c1Cl [compound 76, N-(1-methyl-5-tetrazolethiomethyl)-3,4-dichloro-5-isothiazolecarboxamide] | – | more than 80% | – |
| O=C(NCS(=O)(=O)c1ccccc1)c1snc(Cl)c1Cl [compound 71, N-phenylsulfonylmethyl-3,4-dichloro-5-isothiazolecarboxamide] | more than 80% | – | – |
| Cc1cc(C)n(COC(=O)c2snc(Cl)c2Cl)n1 [compound 98, 3,5-dimethylpyrazol-1-ylmethyl 3,4-dichloro-5-isothiazolecarboxylate] | – | more than 80% | – |
| O=C(NC(O)C(F)(F)F)c1snc(Cl)c1Cl (stereo not shown) [compound 48, N-(2,2,2-trifluoro-1-hydroxyethyl)-3,4-dichloro-5-isothiazolecarboxamide] | – | more than 80% | – |
| Cn1nnnc1SCN(CNC(=O)c1snc(Cl)c1Cl)C(=O)c1snc(Cl)c1Cl [compound 154, N-[(3,4-dichloro-5-isothiazolecarboxamido)-methyl]-N-(1-methyl-5-tetrazolethiomethyl)-3,4-dichloro-5-isothiazolecarboxamide] | – | more than 80% | – |
| O=C(NCSc1ccc(Cl)cc1)c1snc(Cl)c1Cl [compound 65, N-(4-chlorophenylthiomethyl)-3,4-dichloro-5-isothiazolecarboxamide] | more than 80% | – | – |
| O=CN(CNC(=O)c1snc(Cl)c1Cl)Cc1ccccc1 | more than 80% | more than 80% | – |
| CCCC(NC(C)=O)NC(=O)c1snc(Cl)c1Cl (stereo not shown) [compound 112, N-[1-(acetamido)butyl]-3,4-dichloro-5-isothiazolecarboxamide] | – | more than 80% | – |
| O=C(NCO)c1snc(Cl)c1Cl [compound 45, N-hydroxymethyl-3,4-dichloro-5-isothiazolecarboxamide] | more than 80% | – | – |

Reference: patent publication US20030176477A1 (priority 2000, published 2003)
